Record: PubChem BioAssay AID743121 (NCATS, 2013)
Shown is a random part of about 26,000 reagents tested. Of all reagents, 167 (0.63%) got an active call. 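Calls are per gene from RSA p-values that are not deposited; an individual active-marked siRNA can sensitise only weakly.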 Reagents against one gene are numbered here. Not all columns of the deposit are shown. Reagent sequences are not shown.

- Test: 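Genes whose silencing strengthens cell killing by camptothecin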 (primary screen)
- Cell system: MDA-MB-231 cells, a human breast cancer line
- Knock-down reagent: single siRNA against human genes, 20 nM siRNA (0.8 pmol per well)
- Duration: 120 h (drug added 48 h after transfection, read 72 h later)
- Challenge: camptothecin 20 nM (about EC30) for 72 h; vehicle 0.1% DMSO in parallel plates
- Read-out: 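CellTiter-Glo ATP signal, scaled to control siRNA as percent viability; sensitisation given as log2 of untreated divided by camptothecin-treated viability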
- Scale: log2 vehicle/camptothecin viability: higher = stronger sensitisation to camptothecin; viability with camptothecin: higher = more viable cells
- Call rule: 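Active genes have an RSA gene-level p-value below 0.001, computed from the ratios of their separate siRNAs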

Target gene | reagent no. | log2 vehicle/camptothecin viability | viability with camptothecin (% of control) | Call
SIRT7 (sirtuin 7) | 1 | 0.0363 | 98.6 | inactive
SIRT7 (sirtuin 7) | 2 | -0.246 | 28.7 | inactive
SIRT7 (sirtuin 7) | 3 | -0.113 | 67.9 | inactive
SFRP4 (secreted frizzled related protein 4) | 1 | 0.607 | 67.2 | inactive
SFRP4 (secreted frizzled related protein 4) | 2 | 0.19 | 79 | inactive
SFRP4 (secreted frizzled related protein 4) | 3 | 0.0495 | 83.6 | inactive
ITGA10 (integrin subunit alpha 10) | 1 | 0.105 | 88.3 | inactive
ITGA10 (integrin subunit alpha 10) | 2 | -0.297 | 113 | inactive
ITGA10 (integrin subunit alpha 10) | 3 | -0.00465 | 105 | inactive
ITGA10 (integrin subunit alpha 10) | 4 | -0.0267 | 82.2 | inactive
CHIC2 (cysteine rich hydrophobic domain 2) | 1 | 0.0523 | 93.2 | inactive
CHIC2 (cysteine rich hydrophobic domain 2) | 2 | -0.313 | 86.6 | inactive
CHIC2 (cysteine rich hydrophobic domain 2) | 3 | 0.0434 | 52.8 | inactive
CHIC2 (cysteine rich hydrophobic domain 2) | 4 | -0.34 | 93.3 | inactive
STYX (serine/threonine/tyrosine interacting protein) | 1 | -0.127 | 71.9 | inactive
STYX (serine/threonine/tyrosine interacting protein) | 2 | -0.091 | 106 | inactive
STYX (serine/threonine/tyrosine interacting protein) | 3 | -0.217 | 79.8 | inactive
STYX (serine/threonine/tyrosine interacting protein) | 4 | -0.218 | 80.9 | inactive
MS4A2 (membrane spanning 4-domains A2) | 1 | -0.141 | 65 | inactive
MS4A2 (membrane spanning 4-domains A2) | 2 | 0.219 | 68.5 | inactive
MS4A2 (membrane spanning 4-domains A2) | 3 | 0.0786 | 70.3 | inactive
MS4A2 (membrane spanning 4-domains A2) | 4 | -0.387 | 94.4 | inactive
UNG (uracil DNA glycosylase) | 1 | -0.393 | 154 | inactive
UNG (uracil DNA glycosylase) | 2 | 0.0443 | 75.1 | inactive
UNG (uracil DNA glycosylase) | 3 | -0.277 | 104 | inactive
CCS (copper chaperone for superoxide dismutase) | 1 | -0.138 | 87.6 | inactive
CCS (copper chaperone for superoxide dismutase) | 2 | 0.109 | 102 | inactive
CCS (copper chaperone for superoxide dismutase) | 3 | -0.358 | 87.3 | inactive
CCS (copper chaperone for superoxide dismutase) | 4 | -0.243 | 67.7 | inactive
JADE1 (jade family PHD finger 1) | 1 | -0.415 | 69.7 | inactive
JADE1 (jade family PHD finger 1) | 2 | -0.018 | 108 | inactive
JADE1 (jade family PHD finger 1) | 3 | 0.809 | 19.6 | inactive
JADE1 (jade family PHD finger 1) | 4 | 0.54 | 37.4 | inactive
SRD5A2 (steroid 5 alpha-reductase 2) | 1 | 0.234 | 71 | inactive
SRD5A2 (steroid 5 alpha-reductase 2) | 2 | -0.114 | 44.7 | inactive
SRD5A2 (steroid 5 alpha-reductase 2) | 3 | 0.333 | 24.6 | inactive
RBBP5 | 1 | -0.041 | 100 | inactive
RBBP5 | 2 | 0.236 | 43.8 | inactive
RBBP5 | 3 | -0.419 | 99 | inactive
BCL9 (BCL9 transcription coactivator) | 1 | -0.0864 | 81.7 | inactive
BCL9 (BCL9 transcription coactivator) | 2 | -0.365 | 100 | inactive
BCL9 (BCL9 transcription coactivator) | 3 | -0.0747 | 109 | inactive
BCL9 (BCL9 transcription coactivator) | 4 | -0.068 | 80.2 | inactive
KCNMB1 | 1 | -0.67 | 71 | inactive
KCNMB1 | 2 | -0.0636 | 89.7 | inactive
KCNMB1 | 3 | -0.219 | 61.7 | inactive
KCNMB1 | 4 | -0.0556 | 96.9 | inactive

Ordered by “viability with camptothecin (% of control)” (high to low): some entries from above.
Target gene | reagent no. | log2 vehicle/camptothecin viability | viability with camptothecin (% of control) | Call
ITGA10 (integrin subunit alpha 10) | 2 | -0.297 | 113 | inactive
ITGA10 (integrin subunit alpha 10) | 3 | -0.00465 | 105 | inactive
ITGA10 (integrin subunit alpha 10) | 1 | 0.105 | 88.3 | inactive
